Common to all, as to test: affinity purification with mass spectrometry; Strep/FLAG-tagged bait in lysate of transiently transfected HEK293T (1x TBS, 0.5% Nonidet-P40) on Strep-Tactin Superflow 1.5 h, three washes, Strep elution buffer; LC-MS/MS, label-free quantification, six biological replicates; Strep/FLAG-tagged RAF1 as control
The target in test [1] is T1, Strep/FLAG-tagged TTC30B wildtype (human) (UniProt Q8N4P2).
T1 sequence: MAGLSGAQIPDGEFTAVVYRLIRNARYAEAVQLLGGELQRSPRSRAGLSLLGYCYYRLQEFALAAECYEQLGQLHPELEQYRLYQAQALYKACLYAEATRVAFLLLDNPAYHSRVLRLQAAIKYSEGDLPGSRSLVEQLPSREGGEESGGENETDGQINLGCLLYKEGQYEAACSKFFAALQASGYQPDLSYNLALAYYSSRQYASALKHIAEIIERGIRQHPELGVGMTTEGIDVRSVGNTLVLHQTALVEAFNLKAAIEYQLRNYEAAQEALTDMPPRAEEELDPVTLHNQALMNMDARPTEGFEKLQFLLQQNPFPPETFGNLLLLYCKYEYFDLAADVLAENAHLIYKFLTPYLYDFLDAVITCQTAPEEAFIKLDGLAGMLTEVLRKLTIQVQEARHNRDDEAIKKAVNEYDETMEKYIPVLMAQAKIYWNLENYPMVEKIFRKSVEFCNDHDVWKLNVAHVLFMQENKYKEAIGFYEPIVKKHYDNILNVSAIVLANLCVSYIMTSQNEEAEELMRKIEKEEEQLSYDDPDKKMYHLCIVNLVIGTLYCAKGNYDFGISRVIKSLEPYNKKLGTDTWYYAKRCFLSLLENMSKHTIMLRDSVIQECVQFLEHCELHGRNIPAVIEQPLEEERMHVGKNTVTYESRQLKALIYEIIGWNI

Sequences of proteins named here, by UniProt entry; tags and fusion partners are left off.
UniProt O00193: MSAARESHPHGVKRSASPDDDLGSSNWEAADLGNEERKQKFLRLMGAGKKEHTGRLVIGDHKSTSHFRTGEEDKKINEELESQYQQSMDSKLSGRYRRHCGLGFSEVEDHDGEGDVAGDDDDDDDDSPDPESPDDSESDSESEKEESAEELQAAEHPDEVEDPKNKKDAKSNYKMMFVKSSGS

In test [2] the target is T2, Strep/FLAG-tagged TTC30A wildtype (human) (UniProt Q86WT1).
T2 sequence: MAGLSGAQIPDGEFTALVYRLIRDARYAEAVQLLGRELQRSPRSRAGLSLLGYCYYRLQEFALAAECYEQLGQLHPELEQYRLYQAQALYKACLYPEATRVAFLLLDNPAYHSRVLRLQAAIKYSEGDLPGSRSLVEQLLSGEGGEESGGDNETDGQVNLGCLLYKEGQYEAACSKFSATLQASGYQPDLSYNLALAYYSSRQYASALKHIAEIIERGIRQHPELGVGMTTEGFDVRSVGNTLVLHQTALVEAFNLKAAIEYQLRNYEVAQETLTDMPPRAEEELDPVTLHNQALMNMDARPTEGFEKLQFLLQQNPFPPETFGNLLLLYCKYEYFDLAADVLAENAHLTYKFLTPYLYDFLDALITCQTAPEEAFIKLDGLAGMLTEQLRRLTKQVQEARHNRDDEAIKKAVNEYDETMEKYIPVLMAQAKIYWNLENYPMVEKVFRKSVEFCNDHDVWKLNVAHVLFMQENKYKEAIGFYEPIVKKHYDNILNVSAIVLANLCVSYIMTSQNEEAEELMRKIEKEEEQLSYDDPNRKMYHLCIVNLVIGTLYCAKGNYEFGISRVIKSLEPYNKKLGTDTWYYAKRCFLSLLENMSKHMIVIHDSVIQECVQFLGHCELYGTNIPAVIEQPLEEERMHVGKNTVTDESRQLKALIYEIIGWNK

In test [3] the target is T3, Strep/FLAG-tagged TTC30A A375V (human) (UniProt Q86WT1).
T3 sequence: T2 sequence with A375V

Positions count from the first letter of the chain named. No constants are given. Whether binding was seen depends on the method and setting. In cells and extracts the contact can be indirect. Here binding means that the protein was enriched with, or labelled near, the bait; the list need not be complete. Where a sequence is shown, tags or fusion partners need not be part of it.

Turning to SMAP (from UniProt O00193 1-183), the binding entry in test [1], in test [2] and in test [3] was “binds” throughout.

B1: RNPS1 (protein, UniProt Q15287 1-305)
chain: MDLSGVKKKSLLGVKENNKKSSTRAPSPTKRKDRSDEKSKDRSKDKGATKESSEKDRGRDKTRKRRSASSGSSSTRSRSSSTSSSGSSTSTGSSSGSSSSSASSRSGSSSTSRSSSSSSSSGSPSPSRRRHDNRRRSRSKSKPPKRDEKERKRRSPSPKPTKVHIGRLTRNVTKDHIMEIFSTYGKIKMIDMPVERMHPHLSKGYAYVEFENPDEAEKALKHMDGGQIDGQEITATAVLAPWPRPPPRRFSPPRRMLPPPPMWRRSPPRMRRRSRSPRRRSPVRRRSRSPGRRRHRSRSSSNSSR
With B1, the binding entry in test [1], in test [2] and in test [3] was “binds” throughout.

B2: HEATR3 (protein, UniProt Q7Z4Q2 1-680)
chain: MGKSRTKRFKRPQFSPTGDCQAEAAAAANGTGGEEDDGPAAELLEKLQHPSAEVRECACAGLARLVQQRPALPGLARRDAVRRLGPLLLDPSLAVRETAAGALRNLSACGGFEVCDDMVTKDIMTPLVALLKECSAGLDSNEMSLQEKKDQNRNSIENIANETVNVLWNICECSSRAVSIFNKEGCLEIVLKYLSRFPTNVDLAISVAYCLQTVTEDNPELLKSFSATALNMLESALLSPVSSMESLLLKTLVAGTIWNLKDIIPCKSQAEIINALLKILSEVLGMDAGEMVIQMKEAETQRLKTAAEAEEILENTNGDDLIEDDEMEGISHKRRVRRKTFVSDLLPPTDKELRETIALLTAQQTALEIIVNMCCNEDPSDDEWEELSSSDESDAFMENSFSECGGQLFSPLCLSHEVHTALTNYLIPKKIFEKTAFPNSIAVDLCSRNPTWKPLIRKMNTIQCRALFCLQSLVSLLDVEHLGGAAALQTLAQHLSQLLFSQPDFAKHVDFLEAISSALRALLQTMASKNISQCMTPDQLMTLCKAGIHSSNVGVRVNVVSILGITGSVLAKEDGTLETLKNIGCFLLEVTTKDPSLVVAGEALDALFDVFADGKEAERASIQIKLLSALKEFQPVFKMKIRKEGRGNYSTDQLCVLDNVKMNLRRFIAYQETVEKRLTS
With B2, the binding result in test [2] and in test [3] was “binds” each time.

B3: PDXDC1 (protein, UniProt Q6P996 1-788)
chain: MDASLEKIADPTLAEMGKNLKEAVKMLEDSQRRTEEENGKKLISGDIPGPLQGSGQDMVSILQLVQNLMHGDEDEEPQSPRIQNIGEQGHMALLGHSLGAYISTLDKEKLRKLTTRILSDTTLWLCRIFRYENGCAYFHEEEREGLAKICRLAIHSRYEDFVVDGFNVLYNKKPVIYLSAAARPGLGQYLCNQLGLPFPCLCRVPCNTVFGSQHQMDVAFLEKLIKDDIERGRLPLLLVANAGTAAVGHTDKIGRLKELCEQYGIWLHVEGVNLATLALGYVSSSVLAAAKCDSMTMTPGPWLGLPAVPAVTLYKHDDPALTLVAGLTSNKPTDKLRALPLWLSLQYLGLDGFVERIKHACQLSQRLQESLKKVNYIKILVEDELSSPVVVFRFFQELPGSDPVFKAVPVPNMTPSGVGRERHSCDALNRWLGEQLKQLVPASGLTVMDLEAEGTCLRFSPLMTAAVLGTRGEDVDQLVACIESKLPVLCCTLQLREEFKQEVEATAGLLYVDDPNWSGIGVVRYEHANDDKSSLKSDPEGENIHAGLLKKLNELESDLTFKIGPEYKSMKSCLYVGMASDNVDAAELVETIAATAREIEENSRLLENMTEVVRKGIQEAQVELQKASEERLLEEGVLRQIPVVGSVLNWFSPVQALQKGRTFNLTAGSLESTEPIYVYKAQGAGVTLPPTPSGSRTKQRLPGQKPFKRSLRGSDALSETSSVSHIEDLEKVERLSSGPEQITLEASSTEGHPGAPSPQHTDQTEAFQKGVPHPEDDHSQVEGPESLR
Regarding B3, the binding entry in test [2] and in test [3] was “binds” in each case.
